Data taken from patent publication US20060182763A1, “CD8 T cell epitopes in HPV 16 E6 and E7 proteins and uses thereof” (priority 2005, published 2006).
Entries after “also recorded” stand apart in the source; their conditions may differ. Part of at least one peptide drawing is inferred or uncertain, most often the ends. Where a SMILES comes first, the peptide text is derived from it.

Key:
Format in all cases: cell-based, human
[1] = tested on: HPV16 E6 52-61 specific T cell clones; test: ELISPOT of E6 52-61 specific T cell clones with peptide-pulsed EBV-LCLs; conditions: 10 μM peptide
[2] = tested on: T cell clones; test: IFN-γ ELISPOT of T cell clones with peptides and autologous EBV-LCL; conditions: subject 7 clones #41-7 and #86-7; 10^−5M to 10^−10 M
[3] = tested on: T cell clones; test: ELISPOT with E6-vac/E7-vac-infected autologous EBV-LCL (naturally processed epitope); conditions: summary Table 8
[4] = tested on: HLA-B57 positive primary tumor cell lines derived from cervical cancer; test: Chromium release assay on primary tumor cell lines
[5] = tested on: T cell clones; test: IFN-γ ELISPOT of T cell clones with peptides and autologous EBV-LCL
Procedure: A method described previously was used with some modifications (Larsson, M. et al., 2002). Briefly, a 96-well plate (Millititer, Millipore, Bedford, Mass.) was coated with 5μg/ml primary anti-γ-IFN monoclonal antibody (Mabtech, Stockholm, Sweden) and stored at 4° C. overnight. The plate was then washed 4 times with phosphate buffered saline (PBS) and blocked using RPMI 1640 plus 5% pooled human serum for 1 h at 37° C.
To examine the pattern of CD8 T cell epitopes (FIG. 1), 1×10^5cells of a CD8 T cell line were plated in each well. Overlapping 15-mer peptides (overlapping by the 10 central amino acids) were pooled to 10 groups (each group containing 3 peptides) and tested in duplicate (10 μM for each peptide) along with no peptide control. For screening T cell clones, 50 μl of culture media containing the T cell clones was added with 1×10^5 autologous Epstein-Barr virus-transformed B lymphoblastoid cell line (EBV-LCL) cells (data not shown). […]
Autologous EBV-LCL cells were incubated with E6-vac, E7-vac or WR at the multiplicity of infection of 10 for 1 h at 37° C. prior to being plated (FIG. 2B). […] Spot forming units were counted using an automated ELISPOT analyzer (Cell Technology, Inc., Jessup, Md.) and were normalized to number of spot forming units per 1×10^6 cells for CD8 T cell lines. […]

[6] = tested on: HLA class I molecule; test: Restriction element by ELISPOT with HLA-matched allogeneic EBV-LCL
Procedure: Using ELISPOT, the restriction element appeared to be the HLA-B48 molecule for the four clones that were tested (clones 15, 29, 34 and 37) (FIG. 6A). Since the T cell clones present peptide antigens to themselves, the analysis was repeated using a chromium release assay for clones 34 and 37. […] The surface phenotypes of clones 15, 29, 34 and 37 were CD3+CD4−CD8+CD16−.
(§1) The putative restricting HLA class I molecule was identified using allogeneic LCL sharing one or a few class I molecules using an ELISPOT assay in such a manner that all of subjects' HLA class I molecules (A, B, and C) were examined. Autologous LCL was used as a positive control. One thousand T cell clone cells, 1×10^5 allogeneic LCL, and the antigenic peptide were plated in triplicates, and the assay was performed as described supra. The chromium release assays were performed as described supra to confirm the ELISPOT results using multiple allogeneic LCL expressing the putative restricting HLA class I molecule. Additionally, FACS analysis was carried out as described supra using FACS Calibur (Beckton Dickinson Immunocytometry systems, San Jose, Calif.) or Coulter EPICS XL-MLC flow cytometer (Beckman Coulter, Fullerton, Calif.).

[7] = tested on: peptide-pulsed EBV-LCL; test: Chromium release assay with peptide-pulsed EBV-LCL; conditions: summary Table 8
Procedure: as §1

In the case of `CC[C@H](C)[C@H](NC(=O)[C@H](CS)NC(=O)[C@H](CC(C)C)NC(=O)[C@H](CC(=O)O)NC(=O)[C@H](CCCNC(=N)N)NC(=O)[C@H](Cc1ccccc1)NC(=O)[C@H](C)NC(=O)[C@@H](N)Cc1ccccc1)C(=O)N[C@H](C(=O)N[C@@H](Cc1ccc(O)cc1)C(=O)O)C(C)C` [E6 52-61, FAFRDLCIVY] (H-FAFRDLCIVY-OH), the “IFN-γ secretion with peptide-pulsed EBV-LCL” value (“IFN-γ secretion” below) ([1]; EBV-LCL of patient #1) is reported as 191.0±28.5 spot forming units per well, the “IFN-γ secretion” value ([1]; EBV-LCL of patient #2 (3×10^4 cells)) is reported as 158.0±8.5 spot forming units per well and the “IFN-γ secretion” value ([1]; EBV-LCL of subject #15) is reported as 208.7±26.8 spot forming units per well. For the same molecule, the “dilutional analysis of the peptides (ELISPOT)” value [2] was “optimal peptide of minimum length”, the Naturally procesed [3] was “Yes” and the “HPV16-positive tumor cell lines killed by the specific T cell clone” value ([4]; lines from HLA-B57 positive cervical cancer patients) was “Two of the three”. For the same molecule, the “killing of tumor cells pulsed with peptide and treated with IFN-γ” value ([4]; tumor cells of patient #1) was “greatly enhanced killing”, the “killing of peptide-pulsed tumor cells” value ([4]; tumor cells of patient #2) was “no killing” and the “killing of tumor cells pulsed with peptide and treated with IFN-γ” value ([4]; tumor cells of patient #3, versus peptide pulsed IFN-γ untreated) was “unchanged”. For the same molecule, the “killing of peptide-pulsed tumor cells” value ([4]; tumor cells of patients 1 and 3) was “enhanced”, the “shortest optimal peptide sequence” value ([5]; subject 1 E6 epitope) was “optimal sequence; also recorded: optimal peptide of minimum length” and the “minimal and optimal peptide” value ([5]; subject 7 dominant and subdominant epitopes) was “minimal and optimal peptide”. For the same molecule, the “restriction element (ELISPOT)” value ([6]; subject 1 E6 clones) was “HLA-B57”, the “restriction element (ELISPOT)” value ([6]; subject 7 clones) was “HLA-B35” and the Kills target [7] was “Yes”.
